The target of this assay is BLM^1206–1298, encoding the HRDC domain (human) (UniProt P54132). Description: BLI; biotinylated HRDC domain immobilised on streptavidin biosensors, RecA domains in solution, in the absence of nucleotide; 20-mM HEPES pH 7.5, 200-mM NaCl, 5% glycerol; 60-s windows; Octet RED384; both purified. For orientation: Biolayer interferometry detects binding as a change in optical thickness at a sensor tip.

Amino acid sequences for entries named in this document (tags omitted). Residues count along the entry.
BLM^636–1072, including the RecA domains (P54132, residues 636-1072): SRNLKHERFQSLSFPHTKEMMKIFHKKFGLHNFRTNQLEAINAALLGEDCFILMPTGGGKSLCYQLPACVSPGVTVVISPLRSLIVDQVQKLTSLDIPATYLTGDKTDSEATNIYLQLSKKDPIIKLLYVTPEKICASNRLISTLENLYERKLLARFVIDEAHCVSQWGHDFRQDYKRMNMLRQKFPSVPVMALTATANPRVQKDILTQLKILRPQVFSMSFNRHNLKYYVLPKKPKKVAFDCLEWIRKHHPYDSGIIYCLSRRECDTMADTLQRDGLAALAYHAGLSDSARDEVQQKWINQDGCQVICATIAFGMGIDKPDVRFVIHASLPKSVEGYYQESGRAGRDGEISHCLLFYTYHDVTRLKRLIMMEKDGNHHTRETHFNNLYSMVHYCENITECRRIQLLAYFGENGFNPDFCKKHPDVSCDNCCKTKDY
BLM^1206–1298, encoding the HRDC domain (P54132, residues 1206-1298): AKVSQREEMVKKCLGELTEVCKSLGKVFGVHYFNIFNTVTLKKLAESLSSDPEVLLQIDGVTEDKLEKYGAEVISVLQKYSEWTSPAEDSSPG

Results are given in words; binding and its absence hold for the method and conditions named.

With “BLM^636–1072, including the RecA domains (from UniProt P54132 636-1072) (domain or fragment)”, the binding entry is listed as “no binding (condition: in the absence of nucleotide)”.

The record behind these values is article PMC4446433.
